The list shows a part of the results, in another mix than the full data. Records with an inconclusive call do not appear. Active and inactive are the calls of the source. The call rests on the fitted dose curve; in most records, active means well fitted curve in the direction sought with a large enough effect; inconclusive means small, poorly fitted or top-dose-only effect, or another doubt; inactive means no such curve, though single readings can be large; an effect the other way counts as inactive or inconclusive.
Columns and labels:
[1] = BET inhibitor-based combinations targeting novel dependencies in MECOM-rearranged (r) AML: SET-2 cell line (AID 2202231); settings: SET-2 AML cells viability, CellTiter-Glo luminescence, 48 h; further: nearly all actives have a fitted effect of over 35% in size
Summary of the method: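 Readout: CellTiter-Glo luminescence. Exposure: 48 h, 11 concentrations, 500 cells/well. Metric: AUC and within-line Z-AUC after DMSO/empty-well normalization.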

[2] = BET inhibitor-based combinations targeting novel dependencies in MECOM-rearranged (r) AML: MV-4-11 cell line (AID 2202233); settings: MV-4-11 AML viability, CellTiter-Glo luminescence, 48 h; further: nearly all actives have a fitted effect of over 45% in size
Summary of the method: (§1)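 Seeding density was 500 cells/well, and drug exposure lasted 48 hr under standard culture conditions. Read-out used CellTiter-Glo reagent with a 15 min room-temperature incubation before luminescence measurement; AUC and Z-AUC summarize the normalized responses.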

[3] = BET inhibitor-based combinations targeting novel dependencies in MECOM-rearranged (r) AML: HNT-34 cell line (AID 2202234); settings: HNT-34 AML viability, CellTiter-Glo luminescence, 48 h; further: nearly all actives have a fitted effect of over 35% in size
Summary of the method: as §1

[4] = BET inhibitor-based combinations targeting novel dependencies in MECOM-rearranged (r) AML: AML-191 cell line (AID 2202236; further: nearly all actives have a fitted effect of over 35% in size); settings: AML-191 viability, CellTiter-Glo luminescence, 48 h
Text: Ecotropic viral insertion site 1 (EVI1) is located on chromosome 3q26.2 as part of the MECOM (MDS and EVI1 complex) locus. Under normal hematopoiesis, EVI1 is a regulator of hematopoietic stem cell maintenance and self-renewal and EVI1 levels decrease as the cells differentiate. In approximately 5-10% of de novo acute myeloid leukemia (AML) EVI1 is aberrantly expressed, including Chromosomal inv(3)(q21;q26.2) or t(3;3)(q21;q26.2) alterations (MECOM-r) that account for about 50% of AML with EVI1 overexpression 31. AMLs with high levels of EVI1 have a poor prognosis and an overall survival time averaging between 10-14 months. EVI1 overexpression confers resistance in leukemia cells, highlighting the need to develop new targeted therapies for EVI1 overexpressing AMLs. […]
A collection of 2480 mechanistically annotated dugs (MIPE v5.0) was used to screen four 3q26.2 rearranged AML cell lines and three non-3q26.2 rearranged AML cell lines. […] Cell viability was determined by luminescence based, Cell Titer Glo assay (Promega). […] Luminescence readings were taken using a Viewlux (PerkinElmer) with a 2 s exposure time per plate. […] Quantitative drug activity data from dose-response curves was determined utilizing area Under the Curve (AUC) and Z-transformed AUC (Z-AUC, a mean-centering transformation applied to each individual cell-line screened).

Measured: Potency
Potency means the concentration at half of the fitted maximal effect.

CN[C@@H]1C[C@H]2O[C@@](C)([C@@H]1OC)n1c3ccccc3c3c4c(c5c6ccccc6n2c5c31)C(=O)NC4
active: [1] 186 nM | [2] 7.4 nM | [3] 93.4 nM | [4] 29.5 nM
